Source: article PMC5718613
These are yes or no findings as the source states them, for the method shown. Binding seen in cells or lysates may run through a third protein. Some binding calls cover weakened binding; strength is not graded here.

Sequences of proteins named here, by UniProt entry; tags and fusion partners are left off.
UniProt Q2G185: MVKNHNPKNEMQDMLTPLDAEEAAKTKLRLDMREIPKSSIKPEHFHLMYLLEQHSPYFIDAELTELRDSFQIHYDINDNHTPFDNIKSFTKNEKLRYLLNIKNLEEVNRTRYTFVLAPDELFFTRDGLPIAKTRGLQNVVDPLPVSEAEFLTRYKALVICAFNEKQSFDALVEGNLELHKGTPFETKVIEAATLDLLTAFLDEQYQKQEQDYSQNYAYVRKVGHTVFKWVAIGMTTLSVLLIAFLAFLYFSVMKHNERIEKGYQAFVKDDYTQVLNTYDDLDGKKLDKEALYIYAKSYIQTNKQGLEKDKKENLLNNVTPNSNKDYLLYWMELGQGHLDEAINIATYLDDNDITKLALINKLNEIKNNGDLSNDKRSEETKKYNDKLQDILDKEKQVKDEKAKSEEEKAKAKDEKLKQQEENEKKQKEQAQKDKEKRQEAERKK
UniProt Q2G184: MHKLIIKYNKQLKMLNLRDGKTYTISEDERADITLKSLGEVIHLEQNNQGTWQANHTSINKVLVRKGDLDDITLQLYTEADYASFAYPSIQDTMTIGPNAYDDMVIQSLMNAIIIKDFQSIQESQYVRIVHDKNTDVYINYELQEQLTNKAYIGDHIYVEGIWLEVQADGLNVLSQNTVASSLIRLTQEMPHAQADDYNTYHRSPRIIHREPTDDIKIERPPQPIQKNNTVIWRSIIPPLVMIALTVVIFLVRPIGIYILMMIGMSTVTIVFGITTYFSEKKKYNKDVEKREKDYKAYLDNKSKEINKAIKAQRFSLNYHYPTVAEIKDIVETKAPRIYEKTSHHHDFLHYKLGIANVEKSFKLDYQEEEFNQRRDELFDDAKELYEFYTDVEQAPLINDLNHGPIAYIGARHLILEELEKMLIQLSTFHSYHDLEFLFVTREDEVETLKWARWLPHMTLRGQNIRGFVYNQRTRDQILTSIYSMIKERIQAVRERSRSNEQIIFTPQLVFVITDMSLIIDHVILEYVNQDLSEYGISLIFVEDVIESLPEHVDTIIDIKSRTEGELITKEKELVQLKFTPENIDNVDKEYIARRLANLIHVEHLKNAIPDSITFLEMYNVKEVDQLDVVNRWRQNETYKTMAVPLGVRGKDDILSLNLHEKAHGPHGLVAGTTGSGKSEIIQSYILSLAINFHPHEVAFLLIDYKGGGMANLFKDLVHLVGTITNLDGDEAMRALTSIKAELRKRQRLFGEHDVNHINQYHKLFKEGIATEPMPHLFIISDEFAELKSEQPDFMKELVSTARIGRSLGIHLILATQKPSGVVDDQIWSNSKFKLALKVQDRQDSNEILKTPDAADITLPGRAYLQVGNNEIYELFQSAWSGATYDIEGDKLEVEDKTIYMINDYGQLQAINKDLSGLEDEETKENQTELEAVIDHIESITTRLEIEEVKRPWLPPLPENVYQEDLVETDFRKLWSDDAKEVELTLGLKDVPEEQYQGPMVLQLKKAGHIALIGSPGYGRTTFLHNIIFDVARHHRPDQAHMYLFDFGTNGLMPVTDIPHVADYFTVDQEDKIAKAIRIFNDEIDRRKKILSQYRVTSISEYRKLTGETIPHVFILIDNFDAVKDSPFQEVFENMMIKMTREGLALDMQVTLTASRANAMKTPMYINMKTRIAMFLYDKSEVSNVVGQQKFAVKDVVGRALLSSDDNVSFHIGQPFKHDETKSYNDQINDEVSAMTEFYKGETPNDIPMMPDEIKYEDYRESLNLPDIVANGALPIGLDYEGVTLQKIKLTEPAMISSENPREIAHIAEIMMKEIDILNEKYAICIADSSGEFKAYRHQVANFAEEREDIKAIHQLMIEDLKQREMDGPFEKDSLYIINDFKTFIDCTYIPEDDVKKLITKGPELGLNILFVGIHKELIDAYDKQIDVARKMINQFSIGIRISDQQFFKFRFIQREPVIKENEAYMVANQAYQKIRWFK
UniProt Q2G188: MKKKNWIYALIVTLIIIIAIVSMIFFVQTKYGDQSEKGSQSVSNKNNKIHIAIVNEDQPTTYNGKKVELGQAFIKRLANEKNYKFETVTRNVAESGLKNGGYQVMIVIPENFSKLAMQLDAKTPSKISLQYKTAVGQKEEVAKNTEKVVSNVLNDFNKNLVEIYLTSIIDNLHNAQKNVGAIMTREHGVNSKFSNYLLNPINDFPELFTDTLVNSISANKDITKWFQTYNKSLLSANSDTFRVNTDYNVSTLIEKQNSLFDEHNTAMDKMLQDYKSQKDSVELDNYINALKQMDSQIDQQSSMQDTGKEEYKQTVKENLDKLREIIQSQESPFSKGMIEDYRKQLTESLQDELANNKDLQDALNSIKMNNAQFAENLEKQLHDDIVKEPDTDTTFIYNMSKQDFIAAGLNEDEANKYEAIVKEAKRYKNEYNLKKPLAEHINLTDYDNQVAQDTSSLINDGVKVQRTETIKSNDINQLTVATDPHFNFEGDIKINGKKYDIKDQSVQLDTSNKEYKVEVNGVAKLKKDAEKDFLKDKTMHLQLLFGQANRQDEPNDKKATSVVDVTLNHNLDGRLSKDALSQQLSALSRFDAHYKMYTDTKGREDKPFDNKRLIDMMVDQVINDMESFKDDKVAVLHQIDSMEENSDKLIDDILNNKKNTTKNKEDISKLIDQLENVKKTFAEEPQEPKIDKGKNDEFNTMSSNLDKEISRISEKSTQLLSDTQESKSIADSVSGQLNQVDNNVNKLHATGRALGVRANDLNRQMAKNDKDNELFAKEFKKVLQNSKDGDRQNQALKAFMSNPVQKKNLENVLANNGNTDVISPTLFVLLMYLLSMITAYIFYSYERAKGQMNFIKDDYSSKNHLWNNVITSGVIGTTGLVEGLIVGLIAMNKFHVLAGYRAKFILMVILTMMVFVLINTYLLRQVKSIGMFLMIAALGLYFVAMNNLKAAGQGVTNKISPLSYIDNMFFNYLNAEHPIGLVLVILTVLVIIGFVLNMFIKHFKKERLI

Biological target: FLAG-EssB (S. aureus) (UniProt Q2G185)
Assay: co-IP; M2 FLAG-capture beads hold FLAG-EssB; S. aureus membrane fractions solubilized in 50 mM Tris-HCl pH 7.5, 50 mM NaCl, 0.25% DDM; 2 h, 4°C; wild type background (EssC and the EsaA fragment also in ΔfloA, comparable amounts); immunoblot with anti-EsaA, anti-EssC, anti-mCherry

Substance | binding
EssC (from UniProt Q2G184 1-1479) | binds
full-length EsaA (from UniProt Q2G188 1-1009) | no binding
